Test results reported in patent publication US7795249B2, “Certain pyrazoline derivatives with kinase inhibitory activity” (Millennium Pharmaceuticals, Inc., priority 2006, dated 2010).
Some entries share one result that the patent states for a list of compounds.

Chains of the proteins cited; added tags and fusions are not shown.
UniProt P15056, whole entry, stated change not applied: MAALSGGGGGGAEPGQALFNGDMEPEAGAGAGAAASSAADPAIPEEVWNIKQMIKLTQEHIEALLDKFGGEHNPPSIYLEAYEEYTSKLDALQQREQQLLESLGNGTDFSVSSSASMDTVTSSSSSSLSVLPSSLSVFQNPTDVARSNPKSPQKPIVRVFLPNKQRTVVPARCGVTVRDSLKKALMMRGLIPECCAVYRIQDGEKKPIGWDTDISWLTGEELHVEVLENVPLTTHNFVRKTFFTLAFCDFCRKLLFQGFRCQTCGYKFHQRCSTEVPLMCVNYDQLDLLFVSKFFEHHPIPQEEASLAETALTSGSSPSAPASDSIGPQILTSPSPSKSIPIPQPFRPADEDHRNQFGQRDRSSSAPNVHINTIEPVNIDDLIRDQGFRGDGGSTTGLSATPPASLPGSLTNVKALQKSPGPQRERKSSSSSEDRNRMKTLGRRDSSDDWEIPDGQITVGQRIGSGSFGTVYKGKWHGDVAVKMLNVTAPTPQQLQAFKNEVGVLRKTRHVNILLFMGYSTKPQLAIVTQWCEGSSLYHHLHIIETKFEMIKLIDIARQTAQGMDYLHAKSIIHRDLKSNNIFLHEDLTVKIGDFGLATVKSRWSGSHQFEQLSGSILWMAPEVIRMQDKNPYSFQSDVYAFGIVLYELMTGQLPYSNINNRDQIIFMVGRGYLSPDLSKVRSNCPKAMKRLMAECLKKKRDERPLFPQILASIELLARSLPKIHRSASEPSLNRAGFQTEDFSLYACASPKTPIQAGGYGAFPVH

Target: T1, B-Raf (V599E or Wild Type) (Homo sapiens, UniProt P15056)
T1 construct: Enzymatically active wild-type B-Raf was purchased from Upstate (cat#14-530); Enzymatically active mutant B-Raf(V599E) was purified in house; fused on or other part: None is printed; By knowledge, Upstate 14-530 is an N-terminally GST-tagged truncated human B-Raf; the tag is not part of the key
Assay: B-Raf Flash Plate Assay
Format: biochemical
Conditions: bin: less than or equal to 100 nM

| SMILES | IC50 |
| --- | --- |
| O=C(Nc1ccc(-n2cncn2)cc1)N1N=C(c2cccnc2)CC1c1ccccc1O (stereo not shown) [Compound I-306, 5-(2-hydroxyphenyl)-3-pyridin-3-yl-N-[4-(1H-1,2,4-triazol-1-yl)phenyl]-4,5-dihydro-1H-pyrazole-1-carboxamide] | ≤ 100 nM |
| CCNCc1ccccc1-c1ccc(C(=O)N2N=C(c3cccnc3)CC2c2ccccc2O)s1 (stereo not shown) [Compound I-18, 2-{1-[(5-{2-[(ethylamino)methyl]phenyl}-2-thienyl)carbonyl]-3-pyridin-3-yl-4,5-dihydro-1H-pyrazol-5-yl}phenol] | ≤ 100 nM |
| NCc1ccccc1-c1ncc(C(=O)N2N=C(c3cccnc3)CC2c2ccccc2O)[nH]1 (stereo not shown) [Compound I-222, 2-[1-({2-[2-(aminomethyl)phenyl]-1H-imidazol-5-yl}carbonyl)-3-pyridin-3-yl-4,5-dihydro-1H-pyrazol-5-yl]phenol] | ≤ 100 nM |
| NCc1ccc(-c2ccc(C(=O)N3N=C(c4cccnc4)CC3c3ccccc3O)s2)c(Cl)c1 (stereo not shown) [Compound I-370, 2-[1-({5-[4-(aminomethyl)-2-chlorophenyl]-2-thienyl}carbonyl)-3-pyridin-3-yl-4,5-dihydro-1H-pyrazol-5-yl]phenol] | ≤ 100 nM |
| O=C(c1cc(-c2ccccc2)n[nH]1)N1N=C(c2cccnc2)CC1c1c(O)cccc1F (stereo not shown) [Compound I-146, 3-fluoro-2-{1-[(3-phenyl-1H-pyrazol-5-yl)carbonyl]-3-pyridin-3-yl-4,5-dihydro-1H-pyrazol-5-yl}phenol] | ≤ 100 nM |
| O=C(c1cc(-c2ccc(O)cc2)on1)N1N=C(c2cccnc2)CC1c1ccccc1O (stereo not shown) [Compound I-13, 2-(1-{[5-(4-hydroxyphenyl)isoxazol-3-yl]carbonyl}-3-pyridin-3-yl-4,5-dihydro-1H-pyrazol-5-yl)phenol] | ≤ 100 nM |
| Cc1ccc(-c2cc(C(=O)N3N=C(c4cccnc4)CC3c3ccccc3O)no2)cc1 (stereo not shown) [Compound I-91, 2-(1-{[5-(4-methylphenyl)isoxazol-3-yl]carbonyl}-3-pyridin-3-yl-4,5-dihydro-1H-pyrazol-5-yl)phenol] | ≤ 100 nM |
| Cc1oc(CN2CCOCC2)cc1C(=O)N1N=C(c2cccnc2)CC1c1ccccc1O (stereo not shown) [Compound I-61, 2-{1-[2-methyl-5-(morpholin-4-ylmethyl)-3-furoyl]-3-pyridin-3-yl-4,5-dihydro-1H-pyrazol-5-yl}phenol] | ≤ 100 nM |
| O=C(c1ccc(-c2cn[nH]c2)s1)N1N=C(c2cccnc2)CC1c1ccccc1O (stereo not shown) [Compound I-45, 2-(1-{[5-(1H-pyrazol-4-yl)-2-thienyl]carbonyl}-3-pyridin-3-yl-4,5-dihydro-1H-pyrazol-5-yl)phenol] | ≤ 100 nM |
| CNCc1ccccc1-c1ccc(C(=O)N2N=C(c3cncc(CO)c3)CC2c2c(O)cccc2F)s1 (stereo not shown) [Compound I-425, 3-fluoro-2-{3-[5-(hydroxymethyl)pyridin-3-yl]-1-[(5-{2-[(methylamino)-methyl]phenyl}-2-thienyl)carbonyl]-4,5-dihydro-1H-pyrazol-5-yl}phenol] | ≤ 100 nM |
| NC(=O)c1ccc(-c2ncc(C(=O)N3N=C(c4cccnc4)CC3c3ccccc3O)s2)cc1 (stereo not shown) [Compound I-17, 4-(5-{[5-(2-hydroxyphenyl)-3-pyridin-3-yl-4,5-dihydro-1H-pyrazol-1-yl]carbonyl}-1,3-thiazol-2-yl)benzamide] | ≤ 100 nM |
| COc1cccc(-c2cc(C(=O)N3N=C(c4cccnc4)CC3c3ccccc3O)no2)c1 (stereo not shown) [Compound I-60, 2-(1-{[5-(3-methoxyphenyl)isoxazol-3-yl]carbonyl}-3-pyridin-3-yl-4,5-dihydro-1H-pyrazol-5-yl}phenol] | ≤ 100 nM |
| O=C(NCc1ccc(C(=O)N2N=C(c3cccnc3)CC2c2ccccc2O)s1)c1ccccn1 (stereo not shown) [Compound I-136, N-[(5-{[5-(2-hydroxyphenyl)-3-pyridin-3-yl-4,5-dihydro-1H-pyrazol-1-yl]carbonyl}-2-thienyl)methyl]pyridine-2-carboxamide] | ≤ 100 nM |
| Cn1cc(-c2ncc(C(=O)N3N=C(c4cccnc4)CC3c3ccccc3O)s2)cn1 (stereo not shown) [Compound I-14, 2-(1-{[2-(1-methyl-1H-pyrazol-4-yl)-1,3-thiazol-5-yl]carbonyl}-3-pyridin-3-yl-4,5-dihydro-1H-pyrazol-5-yl)phenol] | ≤ 100 nM |
| N#Cc1cccc(-c2ccc(C(=O)N3N=C(c4cccnc4)CC3c3ccccc3O)s2)c1 (stereo not shown) [Compound I-51, 3-(5-{[5-(2-hydroxyphenyl)-3-pyridin-3-yl-4,5-dihydro-1H-pyrazol-1-yl]carbonyl}-2-thienyl)benzonitrile] | ≤ 100 nM |
| O=C(c1ccc(-c2ccccn2)s1)N1N=C(c2cccnc2)CC1c1c(O)cccc1Cl (stereo not shown) [Compound I-166, 3-chloro-2-{3-pyridin-3-yl-1-[(5-pyridin-2-yl-2-thienyl)carbonyl]-4,5-dihydro-1H-pyrazol-5-yl}phenol] | ≤ 100 nM |
| O=Cc1ccccc1-c1ccc(C(=O)N2N=C(c3cccnc3)CC2c2ccccc2O)s1 (stereo not shown) [Compound I-105, 2-(5-{[5-(2-hydroxyphenyl)-3-pyridin-3-yl-4,5-dihydro-1H-pyrazol-1-yl]carbonyl}-2-thienyl)benzaldehyde] | ≤ 100 nM |
| O=C(c1ccc(-c2ccc(N3CCOCC3)nc2)s1)N1N=C(c2cccnc2)CC1c1ccccc1O (stereo not shown) [Compound I-132, 2-(1-{[5-(6-morpholin-4-ylpyridin-3-yl)-2-thienyl]carbonyl)-3-pyridin-3-yl-4,5-dihydro-1H-pyrazol-5-yl)phenol] | ≤ 100 nM |
| O=C(c1ccccc1)c1ccc(NC(=O)N2N=C(c3cccnc3)CC2c2ccccc2O)c([N+](=O)[O-])c1 (stereo not shown) [Compound I-365, N-(4-benzoyl-2-nitrophenyl)-5-(2-hydroxyphenyl)-3-pyridin-3-yl-4,5-dihydro-1H-pyrazole-1-carboxamide] | ≤ 100 nM |
| O=C(c1cc(-c2ccc3c(c2)OCCO3)n[nH]1)N1N=C(c2cccnc2)CC1c1ccccc1O (stereo not shown) [Compound I-113, 2-(1-{[3-(2,3-dihydro-1,4-benzodioxin-6-yl)-1H-pyrazol-5-yl]carbonyl}-3-pyridin-3-yl-4,5-dihydro-1H-pyrazol-5-yl)phenol] | ≤ 100 nM |
| NCc1cccc(-c2ccc(C(=O)N3N=C(c4cccnc4)CC3c3ccccc3O)s2)c1 (stereo not shown) [Compound I-2, 2-[1-({5-[3-(aminomethyl)phenyl]-2-thienyl}carbonyl)-3-pyridin-3-yl-4,5-dihydro-1H-pyrazol-5-yl]phenol] | ≤ 100 nM |
| O=C(c1cnoc1-c1ccccc1)N1N=C(c2cccnc2)CC1c1ccccc1O (stereo not shown) [Compound I-161, 2-{1-[(5-phenylisoxazol-4-yl)carbonyl]-3-pyridin-3-yl-4,5-dihydro-1H-pyrazol-5-yl}phenol] | ≤ 100 nM |
| O=C(Nc1ccccc1Cc1ccccc1)N1N=C(c2cccnc2)CC1c1ccccc1O (stereo not shown) [Compound I-214, N-(2-benzylphenyl)-5-(2-hydroxyphenyl)-3-pyridin-3-yl-4,5-dihydro-1H-pyrazole-1-carboxamide] | ≤ 100 nM |
| Cc1oc(-c2ccc(Cl)cc2)cc1C(=O)N1N=C(c2cccnc2)CC1c1ccccc1O (stereo not shown) [Compound I-43, 2-{1-[5-(4-chlorophenyl)-2-methyl-3-furoyl]-3-pyridin-3-yl-4,5-dihydro-1H-pyrazol-5-yl}phenol] | ≤ 100 nM |
| NCc1ccccc1-c1cc(C(=O)N2N=C(c3cccnc3)CC2c2ccccc2O)n[nH]1 (stereo not shown) [Compound I-198, 2-[1-({5-[2-(aminomethyl)phenyl]-1H-pyrazol-3-yl}carbonyl)-3-pyridin-3-yl-4,5-dihydro-1H-pyrazol-5-yl]phenol] | ≤ 100 nM |
